Results: patent US20040138826A1, “Experimental design and data analytical methods for detecting and characterizing interactions and interaction thresholds on fixed ratio rays of polychemical mixtures and subsets thereof” (priority 2002, published 2004)
Read-outs that look alike come from different tables or passages of the source.

Tests used:
healthy adult rats = system: healthy adult rats
Source text: To motivate the use of these fixed-ratio mixture ray designs consider a study which examines exposure to environmentally relevant pesticides. The OP pesticides chosen for study, based on usage patterns (i.e. pesticides used on same or similar crops) and market share (i.e. highest volume pesticides), were acephate, diazinon, chlorpyrifos, dimethoate, and malathion. Motor activity, a count of the number of passes made across a central area, was used to assess toxicity in healthy adult rats. A full five-pesticide fixed-ratio ray, given by (0.040:0.002:0.031:0.102:0.825) for (acephate:diazinon:chlorpyrifos:dimethoate:malathion), was chosen based on relative dietary exposure estimates of each chemical as projected by the U.S. EPA Dietary Exposure Evaluation Model (DEEM).
Single chemical data were collected approximately 18 months prior to the data along the full fixed-ration ray.
Fixed-ratio ray designs were chosen to study interactions among combinations of multiple pesticides. The pesticides chosen for these studies, based on usage patterns (i.e., pesticides used on the same or similar crops) and market share (i.e., highest volume pesticides), were acephate, diazinon, chlorpyrifos, dimethoate, and malathion. Motor activity, a count of the number of passes made across a central area, was chosen to assess the toxicity of these pesticides in healthy adult rats. The fixed-ratio ray under study was chosen based on the relative dietary exposure estimates of each chemical as projected by the U.S. EPA Dietary Exposure Evaluation Model (DEEM) and is given by (0.040:0.002:0.031:0.102:0.825) for acephate, diazinon, chlorpyrifos, dimethoate, and malathion respectively.
The five-pesticide study described in the introduction is used to illustrate the sample size and power methods developed in Section 3. Due to the high potential of aggregate exposure to OP pesticides, researchers were initially interested in testing the hypothesis of additivity, given in (5), along the full five-pesticide fixed-ratio ray, given by (0.040:0.002:0.031:0.102:0.825) for ([…]), that represents relative dietary exposure estimates. Single chemical data were collected and used to estimate an additivity model along the ray (analysis not shown). Since, the motor activity response is a count variable it was assumed that V(m)=m and the log link function (McCullagh and Nelder, 1989) was used to fit the generalized linear additivity model described in Section 2. […] Eighty-six animals were considered. Fourteen animals were evaluated in the control group. Twelve animals each were evaluated at 10, 55, 100, 200, 300, and 450 mg/kg. Summary statistics for the single chemical and mixture data are provided in the appendix.
The five-pesticide study described in the introduction is used to illustrate the design methodology developed in the following sections. Due to the high potential for aggregate exposure to OP pesticides, researchers were initially interested in testing the hypothesis of additivity, given in (4), along the full five-pesticide fixed-ratio ray, given by (0.040:0.002:0.031:0.102:0.825) for (acephate:diazinon:chlorpyrifos:dimethoate:malathion). Since motor activity response is a count variable, it was assumed that V(μ)=μ and the log link function (McCullagh and Nelder, 1989) was used to fit the generalized linear additivity model given in (1). […] Eighty-six animals were considered. Fourteen animals were evaluated in the control group. Twelve animals each were evaluated at 10, 55, 100, 200, 300, and 450 mg/kg.

rats = settings: logit link
Source text: The endpoint of interest is neurotoxicity in rats as measured by a gait score dichotomized to indicate presence or absence of a gait abnormality (i.e., incoordination, loss of balance, etc.). The fixed-ratio ray under study was chosen based on the relative dietary exposure estimates of each chemical as projected by the U.S. EPA Dietary Exposure Evaluation Model (DEEM) and is given by (0.040:0.002:0.031:0.825:0.102) for ACE, DIA, CPF, MAL, DIM, respectively. […] (Note: Such a strategy can be extended for identifying the impact of the unidentified fraction in a complex mixture.)
The biological endpoint of interest is an indicator of neurotoxicity based on evidence of the presence or absence of a gait abnormality (Moser, 1995). In order to appropriately constrain the probability of a response to be between 0 and 1, a logit link function was used, i.e., g(μ)=log(μ/(1−μ)). It was assumed throughout that the variance changes as a binomial random variable such that Var(Y)=τμ(1−μ) (e.g., McCullagh and Nelder, 1989).
The resulting mixture experiment consisted of a vehicle control (n=14), ‘positive controls’ for ACE alone (6 and 30 mg/kg; n=6, 14, respectively), CPF alone (10, 20, 30 mg/kg; n=6, 8, 6, respectively), DIAZ alone (50 and 125 mg/kg; n=6, 14, respectively), MAL alone (350 mg/kg; n=14), DIM alone (10, 25, 50 mg/kg; n=6, 8, 6, respectively), and six total dose mixture concentrations (10, 55, 100, 200, 300 and 450 mg/kg; n=12 rats per dose group for a total of 72 rats exposed to a mixture of the chemicals) at a fixed mixing ratio ray of (0.040:0.002:0.031:0.825:0.102) for (ACE:DIA:CPF:MAL:DIM). Similarly, the design for a second fixed-ratio ray was based on a reduced number of the pesticides (omitting MAL) with the remaining pesticides at the same relative proportions as in the ‘full’ mixture study. The experiment consisted of a vehicle control (n=8), positive controls (n=8 per group) for ACE (30 mg/kg), CPF (20 mg/kg), DIA (125 mg/kg), and DIM (25 mg/kg), and six total dose mixture concentrations (1.75, 9.6, 17.5, 35, 52.5, and 78.8 mg/kg; n=12 rats per dose group) at a fixed mixing ratio ray of (0.229:0.011:0.177:0.583) for (ACE:DIA:CPF:DIM). Casey et al (2003a,b) describe the motor activity data in the mixture of these five pesticides.

[1] = generalized linear model (3), log link, single chemical and full ray data, Examples 2 and 4 Table 1
[2] = threshold additivity model (2), SAR analysis, Example 1 Table 3
[3] = additivity model (3), single chemical data, Example 3 Table 1
[4] = final SANR analysis, Example 3 Table 3
[5] = full SAR analysis, Example 3 Table 2

Row | SMILES | Estimate of slope parameter β (motor activity) (healthy adult rats; [1]) | Estimate of slope parameter β (motor activity) (healthy adult rats; [2]) | Estimate of slope parameter β (gait abnormality) (rats; [3]) | Estimate of slope parameter β (gait abnormality) (rats; [4]) | Estimate of slope parameter β (gait abnormality) (rats; [5])
1 | CNC(=O)CSP(=S)(OC)OC [Dimethoate, dimethoate] | −0.0123 | −0.014 | 0.1711 | 0.1531 | 0.1335
2 | CCOP(=S)(OCC)Oc1nc(Cl)c(Cl)cc1Cl [Chlorpyrifos, chlorpyrifos] | −0.025 | −0.026 | 0.1605 | 0.1343 | 0.1250
3 | COP(=O)(NC(C)=O)SC (centres unmarked) [Acephate, acephate] | −0.018 | −0.020 | 0.1868 | 0.1615 | 0.1474
4 | CCOP(=S)(OCC)Oc1cc(C)nc(C(C)C)n1 [Diazinon, diazinon] | −0.004 | −0.005 | 0.0338 | 0.0276 | 0.0256
